{"source": "the supplement of paper PMC8728848", "experiment_in_all_cases": "glycan array binding signal (z-score within array); higher = stronger binding", "conditions_in_all_cases": "glycan notation: IUPAC condensed, linker removed", "key": {"[1]": {"target": "Neu5Ac(a2-6)GlcNAc(b1-4)GlcNAc(b1-4)GlcNAc", "procedure,_shortened": "(§1)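 The binding signal is a Z-score computed within each array. Data were drawn from 3228 arrays in the Consortium for Functional Glycomics database, restricted to those with a known protein sequence. Scores were averaged over arrays of the same protein sequence at different concentrations or buffers, and over linkers, and negative values can be taken as non-binding.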"}, "Neu5Ac(a2-8)Neu5Ac": {"target": "Neu5Ac(a2-8)Neu5Ac", "procedure,_shortened": "as §1"}, "[2]": {"target": "Neu5Ac(a2-8)Neu5Ac(a2-3)Gal(b1-3)GalNAc(b1-4)[Neu5Ac(a2-3)]Gal(b1-4)Glc", "procedure,_shortened": "as §1"}, "[3]": {"target": "Neu5Ac(a2-8)Neu5Ac(a2-3)Gal(b1-3)GalNAc(b1-4)[Neu5Ac(a2-8)Neu5Ac(a2-3)]Gal(b1-4)Glc", "procedure,_shortened": "as §1"}, "[4]": {"target": "Neu5Ac(a2-8)Neu5Ac(a2-3)Gal(b1-4)Glc", "procedure,_shortened": "as §1"}, "[5]": {"target": "Neu5Ac(a2-8)Neu5Ac(a2-3)Gal(b1-4)GlcNAc", "procedure,_shortened": "as §1"}, "[6]": {"target": "Neu5Ac(a2-8)Neu5Ac(a2-3)[Gal(b1-3)GalNAc(b1-4)]Gal(b1-4)Glc", "procedure,_shortened": "as §1"}, "[7]": {"target": "Neu5Ac(a2-8)Neu5Ac(a2-3)[GalNAc(b1-4)]Gal(b1-4)Glc", "procedure,_shortened": "as §1"}, "[8]": {"target": "Neu5Ac(a2-8)Neu5Ac(a2-8)Neu5Ac", "procedure,_shortened": "as §1"}, "[9]": {"target": "Neu5Ac(a2-8)Neu5Ac(a2-8)Neu5Ac(a2-3)Gal(b1-4)Glc", "procedure,_shortened": "as §1"}, "[10]": {"target": "Neu5Ac(a2-8)Neu5Ac(a2-8)Neu5Ac(a2-3)[Gal(b1-3)GalNAc(b1-4)]Gal(b1-4)Glc", "procedure,_shortened": "as §1"}, "[11]": {"target": "Neu5Ac(a2-8)Neu5Ac(a2-8)Neu5Ac(a2-3)[GalNAc(b1-4)]Gal(b1-4)Glc", "procedure,_shortened": "as §1"}, "[12]": {"target": "Neu5Ac(a2-8)Neu5Ac(a2-8)Neu5Ac(a2-8)Neu5Ac(a2-3)[GalNAc(b1-4)]Gal(b1-4)Glc", "procedure,_shortened": "as §1"}, "[13]": {"target": "Neu5Ac(a2-8)Neu5Gc(a2-3)Gal(b1-4)GlcNAc", "procedure,_shortened": "as §1"}, "[14]": {"target": "Neu5Ac(b2-6)Gal(b1-4)GlcNAc", "procedure,_shortened": "as §1"}, "Neu5Ac(b2-6)GalNAc": {"target": "Neu5Ac(b2-6)GalNAc", "procedure,_shortened": "as §1"}, "[15]": {"target": "Neu5Ac9Ac(a2-3)Gal(b1-3)GlcNAc", "procedure,_shortened": "as §1"}, "[16]": {"target": "Neu5Ac9Ac(a2-3)Gal(b1-4)GlcNAc", "procedure,_shortened": "as §1"}, "[17]": {"target": "Neu5Ac9Ac(a2-6)Gal(b1-4)GlcNAc", "procedure,_shortened": "as §1"}, "[18]": {"target": "Neu5Gc(a2-3)Gal(b1-3)GlcNAc", "procedure,_shortened": "as §1"}, "[19]": {"target": "Neu5Gc(a2-3)Gal(b1-3)[Fuc(a1-4)]GlcNAc", "procedure,_shortened": "as §1"}, "Neu5Gc(a2-3)Gal(b1-4)Glc": {"target": "Neu5Gc(a2-3)Gal(b1-4)Glc", "procedure,_shortened": "as §1"}, "[20]": {"target": "Neu5Gc(a2-3)Gal(b1-4)GlcNAc", "procedure,_shortened": "as §1"}, "[21]": {"target": "Neu5Gc(a2-3)Gal(b1-4)GlcNAc(b1-3)Gal(b1-4)GlcNAc(b1-2)Man(a1-3)[Neu5Gc(a2-3)Gal(b1-4)GlcNAc(b1-3)Gal(b1-4)GlcNAc(b1-2)Man(a1-6)]Man(b1-4)GlcNAc(b1-4)GlcNAc", "procedure,_shortened": "as §1"}, "[22]": {"target": "Neu5Gc(a2-3)Gal(b1-4)[Fuc(a1-3)]GlcNAc", "procedure,_shortened": "as §1"}, "[23]": {"target": "Neu5Gc(a2-6)Gal(b1-4)GlcNAc", "procedure,_shortened": "as §1"}, "Neu5Gc(a2-6)GalNAc": {"target": "Neu5Gc(a2-6)GalNAc", "procedure,_shortened": "as §1"}, "[24]": {"target": "Neu5Gc(a2-8)Neu5Ac(a2-3)Gal(b1-4)GlcNAc", "procedure,_shortened": "as §1"}, "[25]": {"target": "Neu5Gc(a2-8)Neu5Gc(a2-3)Gal(b1-4)GlcNAc", "procedure,_shortened": "as §1"}, "[26]": {"target": "Neu5Gc(a2-8)Neu5Gc(a2-3)Gal(b1-4)GlcNAc(b1-3)Gal(b1-4)GlcNAc", "procedure,_shortened": "as §1"}, "[27]": {"target": "Neu5Gc(a2-8)Neu5Gc(a2-6)Gal(b1-4)GlcNAc", "procedure,_shortened": "as §1"}, "[28]": {"target": "Neu5Gc(b2-6)Gal(b1-4)GlcNAc", "procedure,_shortened": "as §1"}}, "note": "The list shows a part of the results.", "data": [{"binder": "AFL6 (Aspergillus fumigatus), Q4WKJ1 (protein) MSFHLTAEDIRIEDGHRLVARLRNADGDLQDASIDLNTCLGNDNGHFQWDGVDFSHSAQDVHFAIEGGGQVPVLRAQLANQDGEFQDADVNLSERIENINGEFVFH", "values": [{"measurement": "glycan array binding signal (z-score)", "setting": "[1]", "value": -0.104}, {"measurement": "glycan array binding signal (z-score)", "setting": "Neu5Ac(a2-8)Neu5Ac", "value": -0.314}, {"measurement": "glycan array binding signal (z-score)", "setting": "[2]", "value": -0.5}, {"measurement": "glycan array binding signal (z-score)", "setting": "[3]", "value": 0.17}, {"measurement": "glycan array binding signal (z-score)", "setting": "[4]", "value": -0.53}, {"measurement": "glycan array binding signal (z-score)", "setting": "[5]", "value": -0.406}, {"measurement": "glycan array binding signal (z-score)", "setting": "[6]", "value": -0.306}, {"measurement": "glycan array binding signal (z-score)", "setting": "[7]", "value": -0.387}, {"measurement": "glycan array binding signal (z-score)", "setting": "[8]", "value": -0.492}, {"measurement": "glycan array binding signal (z-score)", "setting": "[9]", "value": -0.546}, {"measurement": "glycan array binding signal (z-score)", "setting": "[10]", "value": 0.228}, {"measurement": "glycan array binding signal (z-score)", "setting": "[11]", "value": -0.309}, {"measurement": "glycan array binding signal (z-score)", "setting": "[12]", "value": 0.549}, {"measurement": "glycan array binding signal (z-score)", "setting": "[13]", "value": 0.164}, {"measurement": "glycan array binding signal (z-score)", "setting": "[14]", "value": -0.01}, {"measurement": "glycan array binding signal (z-score)", "setting": "Neu5Ac(b2-6)GalNAc", "value": -1.29}, {"measurement": "glycan array binding signal (z-score)", "setting": "[15]", "value": -0.347}, {"measurement": "glycan array binding signal (z-score)", "setting": "[16]", "value": 0.416}, {"measurement": "glycan array binding signal (z-score)", "setting": "[17]", "value": 0.652}, {"measurement": "glycan array binding signal (z-score)", "setting": "[18]", "value": 0.067}, {"measurement": "glycan array binding signal (z-score)", "setting": "[19]", "value": 0.513}, {"measurement": "glycan array binding signal (z-score)", "setting": "Neu5Gc(a2-3)Gal(b1-4)Glc", "value": -0.676}, {"measurement": "glycan array binding signal (z-score)", "setting": "[20]", "value": -0.448}, {"measurement": "glycan array binding signal (z-score)", "setting": "[21]", "value": 0.775}, {"measurement": "glycan array binding signal (z-score)", "setting": "[22]", "value": 0.063}, {"measurement": "glycan array binding signal (z-score)", "setting": "[23]", "value": -0.393}, {"measurement": "glycan array binding signal (z-score)", "setting": "Neu5Gc(a2-6)GalNAc", "value": -0.038}, {"measurement": "glycan array binding signal (z-score)", "setting": "[24]", "value": -0.692}, {"measurement": "glycan array binding signal (z-score)", "setting": "[25]", "value": -0.775}, {"measurement": "glycan array binding signal (z-score)", "setting": "[26]", "value": -0.331}, {"measurement": "glycan array binding signal (z-score)", "setting": "[27]", "value": 0.073}, {"measurement": "glycan array binding signal (z-score)", "setting": "[28]", "value": 0.534}]}]}
